The results in this text go back to PMC12514125.

By UniProt entry, the sequences of proteins in these tests, tags left out.
UniProt P52332: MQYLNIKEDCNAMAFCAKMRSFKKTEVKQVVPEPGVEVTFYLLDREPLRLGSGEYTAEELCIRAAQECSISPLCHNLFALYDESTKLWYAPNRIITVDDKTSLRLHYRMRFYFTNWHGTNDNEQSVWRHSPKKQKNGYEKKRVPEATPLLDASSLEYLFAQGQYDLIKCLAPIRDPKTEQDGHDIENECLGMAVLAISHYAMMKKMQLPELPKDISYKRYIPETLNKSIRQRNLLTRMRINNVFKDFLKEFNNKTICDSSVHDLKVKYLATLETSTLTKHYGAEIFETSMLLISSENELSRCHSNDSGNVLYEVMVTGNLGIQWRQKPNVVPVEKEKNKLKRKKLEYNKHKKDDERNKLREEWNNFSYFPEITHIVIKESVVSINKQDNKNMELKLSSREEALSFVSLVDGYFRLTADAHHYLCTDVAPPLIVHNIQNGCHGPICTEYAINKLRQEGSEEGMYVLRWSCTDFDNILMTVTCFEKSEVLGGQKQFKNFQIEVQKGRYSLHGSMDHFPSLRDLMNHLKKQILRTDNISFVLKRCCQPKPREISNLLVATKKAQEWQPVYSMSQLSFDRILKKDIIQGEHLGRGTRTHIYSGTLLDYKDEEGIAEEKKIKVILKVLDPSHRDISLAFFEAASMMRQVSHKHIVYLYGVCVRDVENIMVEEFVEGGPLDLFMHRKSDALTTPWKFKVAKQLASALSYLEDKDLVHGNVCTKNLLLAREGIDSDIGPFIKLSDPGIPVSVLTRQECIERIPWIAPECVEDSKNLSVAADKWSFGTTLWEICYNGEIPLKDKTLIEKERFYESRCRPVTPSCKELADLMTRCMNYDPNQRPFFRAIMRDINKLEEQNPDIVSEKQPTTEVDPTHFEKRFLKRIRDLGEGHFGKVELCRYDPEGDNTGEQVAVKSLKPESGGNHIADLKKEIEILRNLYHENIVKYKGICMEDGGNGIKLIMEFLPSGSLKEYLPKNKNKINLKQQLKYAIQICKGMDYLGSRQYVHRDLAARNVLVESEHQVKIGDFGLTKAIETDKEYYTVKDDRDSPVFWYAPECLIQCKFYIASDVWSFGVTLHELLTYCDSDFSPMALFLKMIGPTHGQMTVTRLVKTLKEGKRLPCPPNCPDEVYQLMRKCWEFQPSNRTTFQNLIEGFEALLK

The test has as its target T1, Lipin3 (mouse, endogenous) (mouse (endogenous in WT mouse tissue and primary hepatocytes)) (UniProt Q99PI4).
T1 sequence: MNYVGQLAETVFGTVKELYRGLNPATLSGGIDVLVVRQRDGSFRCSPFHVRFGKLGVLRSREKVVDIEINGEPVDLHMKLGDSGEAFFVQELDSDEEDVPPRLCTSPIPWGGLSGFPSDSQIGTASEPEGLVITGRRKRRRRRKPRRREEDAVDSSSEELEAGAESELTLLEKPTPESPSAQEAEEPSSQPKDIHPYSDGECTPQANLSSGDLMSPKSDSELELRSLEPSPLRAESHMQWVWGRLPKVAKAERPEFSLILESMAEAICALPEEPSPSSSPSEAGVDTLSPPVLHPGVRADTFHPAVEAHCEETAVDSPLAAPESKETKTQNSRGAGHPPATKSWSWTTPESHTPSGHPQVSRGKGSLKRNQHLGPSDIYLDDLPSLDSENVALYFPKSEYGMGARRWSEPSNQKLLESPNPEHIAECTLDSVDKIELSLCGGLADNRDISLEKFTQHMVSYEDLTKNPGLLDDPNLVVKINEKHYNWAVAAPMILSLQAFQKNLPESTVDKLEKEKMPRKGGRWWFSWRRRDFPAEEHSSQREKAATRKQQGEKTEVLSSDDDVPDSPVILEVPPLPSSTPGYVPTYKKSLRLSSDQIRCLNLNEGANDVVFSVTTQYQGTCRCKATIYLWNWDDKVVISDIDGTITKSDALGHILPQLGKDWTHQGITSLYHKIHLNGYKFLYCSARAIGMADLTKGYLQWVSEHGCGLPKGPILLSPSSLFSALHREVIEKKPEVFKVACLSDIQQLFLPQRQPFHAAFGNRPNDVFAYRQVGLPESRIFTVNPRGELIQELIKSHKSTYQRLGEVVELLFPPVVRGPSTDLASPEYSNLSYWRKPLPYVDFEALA
Kind of test: co-IP; mouse primary hepatocytes, endogenous proteins; immunoprecipitates washed, Western blot.

No constants are given. Whether binding was seen depends on the method and setting. In cells and extracts the contact can be indirect. Some binding calls cover weakened binding; strength is not graded here.

Turning to “JAK1 (mouse, endogenous) (from UniProt P52332 1-1153)”, the binding result is “binds”.
